Among all 52,000 sequences or so, about 210 (0.4%) were called active.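 How the source made its calls: active means gene whose silencing raises cell survival under the drug, median off-target-corrected z-score across its silencing RNAs 2 or more; inactive means the rest.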 This is one part of the list.

The experiment is described as follows: Resistance to Poly (ADP-Ribose) Polymerase inhibitor: Gene Identification via Genome-wide siRNA Screen. To be noted: mouse BRCA2 R2336H ES cells, olaparib, CellTiter-Glo viability; stronger effect = higher value. Summed up:
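Genome-wide siRNA screen (3 siRNAs/gene, 20 nM) in mouse ES cells carrying hypomorphic BRCA2 R2336H; olaparib 500 nM added 48 h post-transfection, CellTiter-Glo viability 72 h later. Normalized to plate-median negative control; MAD z-scores, gene median, seed-adjusted.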
Turning to GGAGAAAACUUAGAUUACCTT against Ppil4, the z-score was inactive: -0.486.

With CCUGUCGACCUUAUUGUAATT against V1ri2, the z-score is inactive: -0.857.

Regarding GCCUAUAUAUGGUCUAUAUTT against Slc26a2, the z-score was inactive: -0.353.

GGCAUGUACCAUGUUUUUGTT against Wdr13: the z-score was inactive: 0.853.

Consider GGAUUACCAGUCUGGAAGUTT against Eef1d, for which the z-score was inactive: 0.0783.

On to GGUUUCUAUAAAUCUCCCUTT against Eif4b, for which the z-score is inactive: -0.214.

As for GGGUUUCUGAGAUUACUGCTT against Ovca2, the z-score is inactive: 0.302.

Regarding GGUCAAGAUGCAGAAAGGUTT against Odf2, the z-score was inactive: 0.6.

For the sequence GGUGAUUGUUAGAGUUAAATT against Syt4, the z-score was inactive: 0.95.

On to “GGAAAUUGUACUCUCCACATT against 2700099C19Rik”, for which the z-score is inactive: -0.425.

As for “GGUAAAGACUGUGUCAUUUTT against 2600014M03Rik”, the z-score was inactive: 0.692.

On to GGGCUUCUUACCAGUCAGATT against Cdca1, for which the z-score was inactive: -2.01.

Turning to GGAACAACUGUAAGUCCACTT against Kng2, the z-score was inactive: -0.00724.

In the case of “GGUGCUUUCUGGAUGAAGATT against 6330407G11Rik”, the z-score was inactive: -0.774.

In the case of GCUUUGUCUCAAAGAAAAATT against Olfr145, the z-score is inactive: 0.165.

On to GGCUUAAGUAUUUUUCUGATT against Fts, for which the z-score was inactive: 0.246.

Turning to “GGAGGUAGAAAAAACACAATT against 4930511A21Rik”, the z-score is inactive: 0.686.

For the sequence CCCGAUUGAUAUUCCAAACTT against Piwil1, the z-score is inactive: -0.249.

On to GGAUCCUUACUACAGAUUUTT against Manba, for which the z-score is inactive: -1.08.

Regarding GCAUCAAACAAUUUGUCGUTT against Ptgis, the z-score is inactive: 0.827.

With GGACAAACAGGGAGAAAGATT against Mogat2, the z-score was inactive: -0.581.

Consider GGAAGUGGUGAAGAAACAUTT against Hspcb, for which the z-score was inactive: -0.855.

In the case of CCUUAAAACUGAUUACACCTT against Bach2, the z-score is inactive: 0.0765.

Turning to CCAUUGUUUGGACUGUUCCTT against Olfr1066, the z-score was inactive: 0.248.

For the sequence “GGUCUUUAGCAGAGAAAAUTT against B230312I18Rik”, the z-score was inactive: -1.82.

With CCUGAACCGUCGUCAACUUTT against Atp5d, the z-score was inactive: -1.7.

As for GGAGCAUCAUCUGAGCGAGTT against Idh3b, the z-score was inactive: -1.35.

In the case of “GCUGAGUCCAUUGAAGAAGTT against 1700081D17Rik”, the z-score was inactive: -1.98.

GCUAUUUCACCGUCAGAAUTT against MGC86034: the z-score is inactive: -1.31.

GCUAGGAUAACCCAGAUUATT against Dph2l2: the z-score was inactive: 0.852.

Take GCUAUGAGUUUGGAAAAAGTT against Tsga2: the z-score is inactive: 0.775.

On to “GGUGGCAGACAUUUCAACATT against D12Ertd647e”, for which the z-score was inactive: -0.074.

As to GCCAUGGUACACUACAUCUTT against BC047207, the z-score was inactive: 1.3.

With UCCAUACUACUCAUCAAAUTT against Olfr68, the z-score is inactive: 0.34.

On to GGAAAUGCUUCUAAAGUCATT against Actg2, for which the z-score is inactive: 0.133.

Regarding GCCUAGAACUGAUGGAGCUTT against Trp73, the z-score is inactive: 0.982.

With GGCUUUUUCAACAUGUGGATT against Olfr853, the z-score is inactive: 1.02.

With “GCGAGGACAACGGAUUUUATT against E130309B19Rik”, the z-score is inactive: 0.367.

GGACUUCCACUCACGUUACTT against Ppp2r3a: the z-score is inactive: 0.371.

Turning to GGGUUUUUCAUAAACAAAGTT against Pdcd1lg2, the z-score is inactive: 0.332.

Regarding GCCUACGAAGUCUUGUCAGTT against Dnajb8, the z-score was inactive: -0.12.

As for “CCCUAAGACUAUGGAGGCCTT against 4930451F05Rik”, the z-score was inactive: 0.362.

As for GCAAGAUCUUGAGUUUUGATT against Wnt3, the z-score is inactive: 0.0548.

Regarding GGUUCUCCCAGACCAAAGATT against Cables1, the z-score was inactive: -0.811.

Consider GGAGACUAAGGAGGUUUAUTT against Ruvbl1, for which the z-score was inactive: -2.98.

Turning to GGAAAUGUCUUAUGAUAACTT against Col5a1, the z-score is inactive: -0.26.

Take GCCGAUGACACUAUCUACCTT against Cryz: the z-score is inactive: -0.769.

As to GGAGCCAACAACAACUCCUTT against Rbm9, the z-score is inactive: 0.45.

Turning to CGUCCAGAGCUACGUAUGCTT against Olfr1490, the z-score was inactive: 0.402.

For the sequence GCUUCUACGCGGCUACUUUTT against Rbed1, the z-score is inactive: -0.0404.

On to GGCCAAAGUGGUGUGUUUCTT against Mta1, for which the z-score is inactive: 0.138.

As to GGGCAGUCAACUUAGUGAGTT against Olfr1208, the z-score is inactive: -0.325.

For GGGUCAUGUACUUCUUUAUTT against Mip, the z-score is inactive: 0.536.

Consider GGACAAAGAGGCAAUGGGATT against Dnajb9, for which the z-score was inactive: 0.614.

Take “GGACAUGUUUGGUGACUAUTT against Hel308-pending”: the z-score was inactive: -1.09.

In the case of GCUCGAUUCAGUCAUUGAGTT against Ak2, the z-score was inactive: -0.864.

Turning to GGAAAGCCAUCGAAUUUCCTT against Il17re, the z-score is inactive: -0.344.

Consider GCACUUUGGUUUUACCGCCTT against Zfp385, for which the z-score is inactive: 1.29.

As to CGGUGAUCGUCAUUUUAUUTT against Ap4m1, the z-score is inactive: 0.616.

GCACGACACUCUGUGCAUCTT against BC037135: the z-score is inactive: 0.875.

For the sequence GCAAGUUACCAGGAUGCAATT against Pglyrp3, the z-score is inactive: -0.57.

As for GGGAUUUUGUACAUUUUUGTT against Egln3, the z-score is inactive: -0.414.

GCGUGAUUCCAGUUUACAUTT against Mapk6: the z-score was inactive: 1.66.

As to GCAGUCACUUUUUAGUAUCTT against V1rb4, the z-score was inactive: 0.464.

As for CCUUCGAUUGAUCUCUAAGTT against Eif4e, the z-score is inactive: -1.54.

Turning to GGGCUAAAUUCAUGGGUUCTT against Timp1, the z-score was inactive: -1.55.

“GGACAGCUUCAUCAAGCCUTT against 2610507L03Rik”: the z-score was inactive: 0.916.
